Assay results as given in the supplement of paper PMC9938546.
Where a name gives a salt, the structure may show the parent alone. The list shows a part of the results. Baselines shift from plate to plate; read single values as rough.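 HCT116-GFP is a human colorectal cancer cell line that carries a KRAS mutation, is microsatellite-unstable and always makes green fluorescent protein; the immune cells came from healthy donors. Live-cell imaging of the green signal stood in for cancer cell survival, and activated immune cells alone cut survival to about half.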

What follows are compounds tested on HCT116-GFP (assay: HCT116-GFP viability (GFP intensity) relative to untreated HCT116-GFP monoculture control, co-culture with activated PBMCs; higher = less cancer cell killing). Settings: culture: co-culture with anti-CD3/IL2 activated PBMCs 1:1; 10 µM; 72 h.
In the case of `CC(=O)O[C@]1(C(C)=O)CC[C@H]2[C@@H]3C=C(C)C4=CC(=O)CC[C@]4(C)[C@H]3CC[C@@]21C` [Megestrol acetate], the HCT116-GFP viability was 81.6%.
In the case of `CC(C)(C)NCC(O)COc1cccc2c1CC(O)C(O)C2` (centres undefined) [Nadolol], the HCT116-GFP viability was 72.1%.
With `CCOCCn1c(N2CCCN(C)CC2)nc2ccccc21` [Emedastine] the HCT116-GFP viability was 32.6%.
For `Cc1cccn2c(=O)c(-c3nnn[nH]3)cnc12` [Pemirolast potassium], the HCT116-GFP viability was 43.1%.
`CC[C@H](C)C(=O)O[C@H]1C[C@H](O)C=C2C=C[C@H](C)[C@H](CC[C@@H](O)C[C@@H](O)CC(=O)O)[C@H]21` [Pravastatin] showed an HCT116-GFP viability of 22.9%.
Work on `CC(=O)NC[C@H]1CN(c2ccc(N3CCOCC3)c(F)c2)C(=O)O1` [Linezolid] yielded an HCT116-GFP viability of 49%.
`Cc1nccn1CC1CCc2c(c3ccccc3n2C)C1=O` (centres undefined) [Ondansetron Hydrochloride] showed an HCT116-GFP viability of 37%.
`COc1ccc2c(c1)c(CC(=O)OCC(=O)O)c(C)n2C(=O)c1ccc(Cl)cc1` [Acemetacin] gave an HCT116-GFP viability of 52.7%.
Work on `CCCCC1C(=O)N(c2ccccc2)N(c2ccccc2)C1=O` [Phenylbutazone] yielded an HCT116-GFP viability of 43%.
`CCCc1nc2c(C)cc(-c3nc4ccccc4n3C)cc2n1Cc1ccc(-c2ccccc2C(=O)O)cc1` [Telmisartan] showed an HCT116-GFP viability of 48.7%.
Work on `CCCCOC(=O)c1ccc(O)cc1` [Butylparaben] yielded an HCT116-GFP viability of 65.6%.
`N=C(N)N1CCc2ccccc2C1` [Debrisoquin sulfate] was tested, and the HCT116-GFP viability was 35.4%.
`CC(=O)/N=c1/sc(S(N)(=O)=O)nn1C` [Methazolamide] showed an HCT116-GFP viability of 65.8%.
`O=C(O)Cc1cc(I)c(Oc2ccc(O)c(I)c2)c(I)c1` [Tiratricol, 3,3',5-triiodothyroacetic acid] gave an HCT116-GFP viability of 41.9%.
Work on `COCCCOc1ccnc(C[S+]([O-])c2nc3ccccc3[nH]2)c1C` (centres undefined) [Rabeprazole Sodium salt] yielded an HCT116-GFP viability of 56.1%.
With `CNCC[C@@H](Oc1ccccc1C)c1ccccc1` [Tomoxetine hydrochloride] the HCT116-GFP viability was 57.7%.
For `O=C(CCCCC(=O)Nc1c(I)cc(I)c(C(=O)O)c1I)Nc1c(I)cc(I)c(C(=O)O)c1I` [Iodipamide], the HCT116-GFP viability was 76.9%.
`Cc1c(F)c(N2CCNC(C)C2)cc2c1c(=O)c(C(=O)O)cn2C1CC1` (centres undefined) [Grepafloxacin] gave an HCT116-GFP viability of 57%.
For `CC(=O)OCC(=O)[C@@]12OC3(CCCC3)O[C@@H]1C[C@H]1[C@@H]3CCC4=CC(=O)C=C[C@]4(C)[C@@]3(F)[C@@H](O)C[C@@]12C` [Amcinonide], the HCT116-GFP viability was 58.2%.
Work on `N=C(N=C(N)N)N1CCOCC1` [Moroxidine hydrochloride] yielded an HCT116-GFP viability of 33%.
`CCCC(=O)Nc1ccc(OCC(O)CNC(C)C)c(C(C)=O)c1` (centres undefined) [Acebutolol hydrochloride] showed an HCT116-GFP viability of 48.5%.
With `CN1[C@@H]2CC[C@H]1C[C@@H](OC(c1ccccc1)c1ccccc1)C2` [Benztropine mesylate] the HCT116-GFP viability was 42.5%.
`CC(=O)Nc1ccc(OCC(O)CNC(C)C)cc1` (centres undefined) [Practolol] gave an HCT116-GFP viability of 53.6%.
Work on `O=C(Nc1ccccc1)OCC(CN1CCCCC1)OC(=O)Nc1ccccc1` (centres undefined) [Diperodon hydrochloride] yielded an HCT116-GFP viability of 69.9%.
`O=C(O)c1cc(=O)c2c(OCC(O)COc3cccc4oc(C(=O)O)cc(=O)c34)cccc2o1` [Cromolyn disodium salt] showed an HCT116-GFP viability of 67%.
`Cc1ccc(O)c([C@H](CCN(C(C)C)C(C)C)c2ccccc2)c1` [Tolterodine tartrate] showed an HCT116-GFP viability of 9.27%.
`CCCCOc1ccc(CC(=O)NO)cc1` [Bufexamac] showed an HCT116-GFP viability of 40.7%.
For `CC(=O)OC(C)C[N+](C)(C)C` (centres undefined) [Methacholine chloride], the HCT116-GFP viability was 71.8%.
`C=CCc1ccccc1OCC(O)CNC(C)C` (centres undefined) [Alprenolol hydrochloride] was tested, and the HCT116-GFP viability was 37.5%.
For `NC[C@H]1CC[C@H](C(=O)O)CC1` [Tranexamic acid], the HCT116-GFP viability was 35.5%.
Compound `Cc1c(O)cccc1C(=O)N[C@@H](CSc1ccccc1)[C@H](O)CN1C[C@H]2CCCC[C@H]2C[C@H]1C(=O)NC(C)(C)C` [Nelfinavir mesylate] has an HCT116-GFP viability of 40.7%.
With `CCSc1ccc2c(c1)N(CCCN1CCN(C)CC1)c1ccccc1S2` [Thiethylperazine dimalate] the HCT116-GFP viability was 17.6%.
Compound `CN(C)CCC(c1ccccc1)c1ccccn1` (centres undefined) [Pheniramine maleate] has an HCT116-GFP viability of 44.8%.
`CCN(CCCc1ccccc1)CCCc1ccccc1` [Alverine citrate salt] gave an HCT116-GFP viability of 39.7%.
Work on `O=P(O)(O)C(O)(Cc1cccnc1)P(=O)(O)O` [Risedronic acid monohydrate] yielded an HCT116-GFP viability of 12.6%.
For `CCN(CC)C(=O)N1CCN(C)CC1` [Diethylcarbamazine citrate], the HCT116-GFP viability was 43.7%.
In the case of `C=CC[N@@+]12CC[C@@]34c5ccccc5N5/C=C6/[C@H]7C[C@H]8[C@@]9(CC[N@@+]8(CC=C)C/C7=C/CO)c7ccccc7N(/C=C(/[C@@H](C[C@@H]31)/C(=C\CO)C2)[C@H]54)[C@@H]69` [Alcuronium chloride], the HCT116-GFP viability was 38.5%.
`CCCC(C(=O)OCCN(CC)CC)(c1ccccc1)c1ccccc1` [Proadifen hydrochloride] gave an HCT116-GFP viability of 64.9%.
In the case of `Clc1ccccc1C(c1ccccc1)(c1ccccc1)n1ccnc1` [Clotrimazole], the HCT116-GFP viability was 24.6%.
Compound `Clc1ccc(COC(Cn2ccnc2)c2ccc(Cl)cc2Cl)cc1` (centres undefined) [Econazole nitrate] has an HCT116-GFP viability of 25.7%.
Compound `CNC1(C)C2CCC(C2)C1(C)C` (centres undefined) [Mecamylamine hydrochloride] has an HCT116-GFP viability of 43.3%.
In the case of `C=C(NC(=O)C(=C)NC(=O)c1csc(C2=N[C@@H]3c4csc(n4)[C@H]4NC(=O)c5csc(n5)[C@H]([C@](C)(O)[C@@H](C)O)NC(=O)[C@H]5CSC(=N5)/C(=C/C)NC(=O)[C@H]([C@@H](C)O)NC(=O)c5csc(n5)[C@]3(CC2)NC(=O)[C@H](C)NC(=O)C(=C)NC(=O)[C@H](C)NC(=O)[C@H]([C@@H](C)CC)N[C@@H]2C=Cc3c([C@H](C)O)cc(nc3[C@H]2O)C(=O)O[C@@H]4C)n1)C(N)=O` [Thiostrepton], the HCT116-GFP viability was 2.5%.
`CC(=C(CCO)SSCC1CCCO1)N(C=O)Cc1cnc(C)nc1N` (stereo in doubt) [Fursultiamine Hydrochloride] gave an HCT116-GFP viability of 56.4%.
In the case of `CCC(C)(CN(C)C)OC(=O)c1ccccc1` (centres undefined) [Amyleine hydrochloride], the HCT116-GFP viability was 58.7%.
Work on `NC(=O)c1cccnc1` [Nicotinamide] yielded an HCT116-GFP viability of 56.2%.
For `Cn1c(=O)c2c(ncn2CC(O)CO)n(C)c1=O` (centres undefined) [Diprophylline], the HCT116-GFP viability was 16.5%.
Work on `CC(C)(Oc1ccc(C2CC2(Cl)Cl)cc1)C(=O)O` (centres undefined) [Ciprofibrate] yielded an HCT116-GFP viability of 28%.
Compound `CC1=C(C(=O)O)N2C(=O)[C@@H](NC(=O)[C@H](N)c3ccc(O)cc3)[C@H]2SC1` [Cefadroxil] has an HCT116-GFP viability of 59%.
For `C=CCN1CCCC1CNC(=O)c1cc2nn[nH]c2cc1OC` (centres undefined) [Alizapride hydrochloride], the HCT116-GFP viability was 44.3%.
Work on `CNCC[C@@H](Oc1cccc2ccccc12)c1cccs1` [(R)-Duloxetine hydrochloride] yielded an HCT116-GFP viability of 57%.
Work on `CC(CCc1ccc(O)cc1)NCCc1ccc(O)c(O)c1` (centres undefined) [Dobutamine hydrochloride] yielded an HCT116-GFP viability of 71.5%.
With `Nc1ccc(S(N)(=O)=O)cc1` [Sulfanilamide] the HCT116-GFP viability was 64.2%.
In the case of `CCC(C)(C)c1ccc(CC(C)CN2C[C@@H](C)O[C@@H](C)C2)cc1` (some centres undefined) [Amorolfine hydrochloride], the HCT116-GFP viability was 53%.
Compound `CC[C@]12CCCN3CCc4c(n(c5ccccc45)[C@@](O)(C(=O)OC)C1)[C@@H]32` [Vincamine] has an HCT116-GFP viability of 64.3%.
With `COc1cc(N)c(Cl)cc1C(=O)NC1CCN(Cc2ccccc2)CC1` [Clebopride maleate] the HCT116-GFP viability was 58.6%.
In the case of `Nc1nc(N)nc(-c2cc(Cl)ccc2Cl)n1` [Irsogladine maleate], the HCT116-GFP viability was 77.1%.
Compound `CCN1CCCC1CNC(=O)c1cc(S(=O)(=O)CC)c(N)cc1OC` (centres undefined) [Amisulpride] has an HCT116-GFP viability of 46.5%.
With `CC(C)[C@H]1CC[C@H](C(=O)N[C@H](Cc2ccccc2)C(=O)O)CC1` [Nateglinide] the HCT116-GFP viability was 29.8%.
In the case of `COc1ccccc1OCCNCC(O)COc1cccc2[nH]c3ccccc3c12` (centres undefined) [Carvedilol], the HCT116-GFP viability was 55.8%.
`CC(C)c1nc(CN(C)C(=O)N[C@H](C(=O)N[C@@H](Cc2ccccc2)C[C@H](O)[C@H](Cc2ccccc2)NC(=O)OCc2cncs2)C(C)C)cs1` [Ritonavir] was tested, and the HCT116-GFP viability was 41.3%.
`CC1CCc2cc(F)cc3c(=O)c(C(=O)O)cn1c23` (centres undefined) [Flumequine] gave an HCT116-GFP viability of 36.2%.
`O=C(NCC1CCCCN1)c1cc(OCC(F)(F)F)ccc1OCC(F)(F)F` (centres undefined) [Flecainide acetate] was tested, and the HCT116-GFP viability was 74.6%.
For `CCCCOc1ccc(OCCCN2CCOCC2)cc1` [Pramoxine hydrochloride], the HCT116-GFP viability was 71.6%.
`CCOC(=O)C1=C(C)NC(C)=C(C(=O)OC)C1c1cccc([N+](=O)[O-])c1` (centres undefined) [Nitrendipine] showed an HCT116-GFP viability of 64.8%.
With `CCn1cc(C(=O)O)c(=O)c2cc(F)c(N3CCNCC3)cc21` [Norfloxacin] the HCT116-GFP viability was 43.8%.
`O=C(c1ccc(OCCN2CCCCC2)cc1)c1c(-c2ccc(O)cc2)sc2cc(O)ccc12` [Raloxifene hydrochloride] was tested, and the HCT116-GFP viability was 75.8%.
`CC(CN1c2ccccc2Sc2ccccc21)N(C)C` (centres undefined) [Promethazine hydrochloride] showed an HCT116-GFP viability of 67.6%.
For `NS(=O)(=O)c1cc2c(cc1C(F)(F)F)NC(Cc1ccccc1)NS2(=O)=O` (centres undefined) [Bendroflumethiazide], the HCT116-GFP viability was 75.3%.
In the case of `CN(C)CCCC1(c2ccc(F)cc2)OCc2cc(C#N)ccc21` (centres undefined) [Citalopram Hydrobromide], the HCT116-GFP viability was 60.9%.
With `CCCC(CCC)C(=O)O` [Valproic acid] the HCT116-GFP viability was 32.5%.
Compound `O=C(O)CNC(=O)C(CS)Cc1ccccc1` (centres undefined) [Thiorphan] has an HCT116-GFP viability of 55.7%.
`Cc1onc(-c2ccccc2)c1C(=O)N[C@@H]1C(=O)N2[C@@H]1SC(C)(C)[C@@H]2C(=O)O` [Oxacillin sodium] gave an HCT116-GFP viability of 77%.
For `CN(C)CCC(c1ccc(Cl)cc1)c1ccccn1` (centres undefined) [Chlorpheniramine maleate], the HCT116-GFP viability was 42.2%.
In the case of `COc1cc(N)c(Cl)cc1C(=O)NC1CCN(CCCOc2ccc(F)cc2)CC1OC` (centres undefined) [Cisapride], the HCT116-GFP viability was 72.8%.
